PubChem BioAssay AID1159590 – NIAID, 2016
Here is an unselected part of 756 reagents tested. 128 of them (17%) count as active. 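Calls are two-sided: both reduced and increased p65 nuclear entry count as active.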 Entries without a mark were called inactive. The numbers tell different reagents against one gene apart. The record does not give: the amount of reagent.

- Test: 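Which core TLR signalling genes NF-kB activation by Pam3CSK4 depends on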
- Cell system: mouse RAW264.7 macrophage reporter cells expressing GFP-p65 and a Tnf promoter-mCherry
- Knock-down reagent: single siRNA against mouse genes
- Duration: 48 to 72 hours after siRNA transfection, then 40 minutes of ligand
- Challenge: Pam3CSK4 (TLR2/1 agonist) for 40 minutes before fixation; dose not given
- Measured: 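GFP-p65 nuclear to cytoplasmic intensity ratio from imaging, normalised per plate by median and MAD, given as robust z against negative controls, mean of replicates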
- Scale: p65 nuclear entry z-score: higher = more p65 moved into nuclei than in negative-control wells
- Active means: In these data the active calls have p65 nuclear entry z-score, replicate mean at about -1.5 or lower, or at about 1.5 or higher
- Calls: active = strong change, up or down; inactive = little change

Tnfaip3 (tumor necrosis factor, alpha-induced protein 3) #1 showed p65 nuclear entry z-score, replicate mean 0.381.
Silencing of Tnfaip3 (tumor necrosis factor, alpha-induced protein 3) #2 came out at: p65 nuclear entry z-score, replicate mean -1.65 (active).
Tnfaip3 (tumor necrosis factor, alpha-induced protein 3) #3 scored p65 nuclear entry z-score, replicate mean 1.48.
Depletion of Tnfaip3 (tumor necrosis factor, alpha-induced protein 3) #4 came out at: p65 nuclear entry z-score, replicate mean 0.84.
After knock-down of Tnfaip3 (tumor necrosis factor, alpha-induced protein 3) #5, the screen gave p65 nuclear entry z-score, replicate mean -1.09.
Tnfaip3 (tumor necrosis factor, alpha-induced protein 3) #6 gave p65 nuclear entry z-score, replicate mean -0.749.
Against Mapk14 (mitogen-activated protein kinase 14) #1, the entry reads p65 nuclear entry z-score, replicate mean 0.459.
Mapk14 (mitogen-activated protein kinase 14) #2 gave p65 nuclear entry z-score, replicate mean -0.258.
Silencing of Mapk14 (mitogen-activated protein kinase 14) #3 came out at: p65 nuclear entry z-score, replicate mean -0.238.
With knock-down of Mapk14 (mitogen-activated protein kinase 14) #4, the record shows p65 nuclear entry z-score, replicate mean -1.28.
Mapk14 (mitogen-activated protein kinase 14) #5 showed p65 nuclear entry z-score, replicate mean -1.1.
Mapk14 (mitogen-activated protein kinase 14) #6 gave p65 nuclear entry z-score, replicate mean 0.311.
Knock-down of Mapk1 (mitogen-activated protein kinase 1) #1 gave: p65 nuclear entry z-score, replicate mean -0.992.
For Mapk1 (mitogen-activated protein kinase 1) #2, the values are p65 nuclear entry z-score, replicate mean -1.21.
Against Mapk1 (mitogen-activated protein kinase 1) #3, the entry reads p65 nuclear entry z-score, replicate mean -1.14.
Mapk1 (mitogen-activated protein kinase 1) #4 scored p65 nuclear entry z-score, replicate mean -0.577.
Silencing of Mapk1 (mitogen-activated protein kinase 1) #5 resulted in: p65 nuclear entry z-score, replicate mean -0.0217.
Silencing of Mapk1 (mitogen-activated protein kinase 1) #6 came out at: p65 nuclear entry z-score, replicate mean -0.0467.
For Tlr5 (toll-like receptor 5) #1, the entry reads p65 nuclear entry z-score, replicate mean -1.15.
Depletion of Tlr5 (toll-like receptor 5) #2 resulted in: p65 nuclear entry z-score, replicate mean 0.996.
After knock-down of Tlr5 (toll-like receptor 5) #3, the screen gave p65 nuclear entry z-score, replicate mean -0.109.
Tlr5 (toll-like receptor 5) #4 gave p65 nuclear entry z-score, replicate mean -0.144.
After knock-down of Tlr5 (toll-like receptor 5) #5, the record shows p65 nuclear entry z-score, replicate mean 1.09.
Silencing of Tlr5 (toll-like receptor 5) #6 resulted in: p65 nuclear entry z-score, replicate mean -1.34.
After knock-down of Dusp2 (dual specificity phosphatase 2) #1, the record shows p65 nuclear entry z-score, replicate mean -0.406.
With knock-down of Dusp2 (dual specificity phosphatase 2) #2, the record shows p65 nuclear entry z-score, replicate mean -2.07 (active).
Knock-down of Dusp2 (dual specificity phosphatase 2) #3 gave: p65 nuclear entry z-score, replicate mean -0.187.
For Dusp2 (dual specificity phosphatase 2) #4 the deposit lists p65 nuclear entry z-score, replicate mean -0.329.
Knock-down of Dusp2 (dual specificity phosphatase 2) #5 resulted in: p65 nuclear entry z-score, replicate mean 0.613.
Dusp2 (dual specificity phosphatase 2) #6 showed p65 nuclear entry z-score, replicate mean -1.21.
After knock-down of Stat1 (signal transducer and activator of transcription 1) #1, the screen gave p65 nuclear entry z-score, replicate mean -0.316.
After knock-down of Stat1 (signal transducer and activator of transcription 1) #2 the results were p65 nuclear entry z-score, replicate mean 0.701.
Stat1 (signal transducer and activator of transcription 1) #3 gave p65 nuclear entry z-score, replicate mean -2.08 (active).
Silencing of Stat1 (signal transducer and activator of transcription 1) #4 resulted in: p65 nuclear entry z-score, replicate mean -0.295.
Stat1 (signal transducer and activator of transcription 1) #5 showed p65 nuclear entry z-score, replicate mean -1.42.
After knock-down of Stat1 (signal transducer and activator of transcription 1) #6, the screen gave p65 nuclear entry z-score, replicate mean 0.367.
For Tlr1 (toll-like receptor 1) #1 the deposit lists p65 nuclear entry z-score, replicate mean 0.27.
For Tlr1 (toll-like receptor 1) #2, the entry reads p65 nuclear entry z-score, replicate mean -0.457.
For Tlr1 (toll-like receptor 1) #3 the deposit lists p65 nuclear entry z-score, replicate mean -1.18.
Knock-down of Tlr1 (toll-like receptor 1) #4 came out at: p65 nuclear entry z-score, replicate mean -0.53.
Depletion of Tlr1 (toll-like receptor 1) #5 resulted in: p65 nuclear entry z-score, replicate mean 0.9.
After knock-down of Tlr1 (toll-like receptor 1) #6, the record shows p65 nuclear entry z-score, replicate mean -1.5.
Knock-down of Tlr4 (toll-like receptor 4) #1 resulted in: p65 nuclear entry z-score, replicate mean 0.567.
For Tlr4 (toll-like receptor 4) #2 the deposit lists p65 nuclear entry z-score, replicate mean 0.725.
After knock-down of Tlr4 (toll-like receptor 4) #3 the results were p65 nuclear entry z-score, replicate mean 0.478.
Against Tlr4 (toll-like receptor 4) #4, the entry reads p65 nuclear entry z-score, replicate mean 0.401.
For Tlr4 (toll-like receptor 4) #5, the values are p65 nuclear entry z-score, replicate mean -0.363.
Tlr4 (toll-like receptor 4) #6 showed p65 nuclear entry z-score, replicate mean -1.3.

Individual results from the list:
Under “p65 nuclear entry z-score, replicate mean”, Tnfaip3 (tumor necrosis factor, alpha-induced protein 3) #4 shows 0.84
Under “p65 nuclear entry z-score, replicate mean”, Tlr4 (toll-like receptor 4) #4 is entered as 0.401
Value for Tnfaip3 (tumor necrosis factor, alpha-induced protein 3) #3 in “p65 nuclear entry z-score, replicate mean”: 1.48
Tlr1 (toll-like receptor 1) #1, p65 nuclear entry z-score, replicate mean → 0.27
Under “p65 nuclear entry z-score, replicate mean”, Dusp2 (dual specificity phosphatase 2) #3 is entered as -0.187
For “p65 nuclear entry z-score, replicate mean”, Stat1 (signal transducer and activator of transcription 1) #4 has -0.295
